# The supplement of paper PMC12819154, “High-throughput peptide-centric local stability assay extends protein–ligand identification to membrane proteins, tissues and bacteria” (Nature Structural & Molecular Biology, 2025)
# By UniProt entry, the sequences of proteins in these tests, tags left out. Where a name states a change or a piece, a line headed by the entry shows the natural chain unless it says otherwise.
# UniProt Q3U3E2: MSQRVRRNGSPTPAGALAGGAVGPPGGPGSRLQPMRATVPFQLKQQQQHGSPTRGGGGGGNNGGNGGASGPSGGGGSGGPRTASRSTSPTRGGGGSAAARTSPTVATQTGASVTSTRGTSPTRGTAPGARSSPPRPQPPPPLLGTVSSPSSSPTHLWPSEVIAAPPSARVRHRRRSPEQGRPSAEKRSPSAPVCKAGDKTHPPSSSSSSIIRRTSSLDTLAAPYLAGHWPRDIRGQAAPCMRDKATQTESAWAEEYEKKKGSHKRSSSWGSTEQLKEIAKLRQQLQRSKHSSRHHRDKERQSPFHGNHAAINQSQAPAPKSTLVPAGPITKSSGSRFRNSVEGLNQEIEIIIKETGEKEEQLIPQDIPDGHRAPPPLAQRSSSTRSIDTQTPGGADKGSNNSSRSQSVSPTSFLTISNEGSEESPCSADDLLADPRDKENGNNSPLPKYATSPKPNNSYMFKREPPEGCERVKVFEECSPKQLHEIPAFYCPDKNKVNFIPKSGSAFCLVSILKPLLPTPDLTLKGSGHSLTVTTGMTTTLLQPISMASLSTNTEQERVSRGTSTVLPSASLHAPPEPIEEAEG
# UniProt Q5DTX6: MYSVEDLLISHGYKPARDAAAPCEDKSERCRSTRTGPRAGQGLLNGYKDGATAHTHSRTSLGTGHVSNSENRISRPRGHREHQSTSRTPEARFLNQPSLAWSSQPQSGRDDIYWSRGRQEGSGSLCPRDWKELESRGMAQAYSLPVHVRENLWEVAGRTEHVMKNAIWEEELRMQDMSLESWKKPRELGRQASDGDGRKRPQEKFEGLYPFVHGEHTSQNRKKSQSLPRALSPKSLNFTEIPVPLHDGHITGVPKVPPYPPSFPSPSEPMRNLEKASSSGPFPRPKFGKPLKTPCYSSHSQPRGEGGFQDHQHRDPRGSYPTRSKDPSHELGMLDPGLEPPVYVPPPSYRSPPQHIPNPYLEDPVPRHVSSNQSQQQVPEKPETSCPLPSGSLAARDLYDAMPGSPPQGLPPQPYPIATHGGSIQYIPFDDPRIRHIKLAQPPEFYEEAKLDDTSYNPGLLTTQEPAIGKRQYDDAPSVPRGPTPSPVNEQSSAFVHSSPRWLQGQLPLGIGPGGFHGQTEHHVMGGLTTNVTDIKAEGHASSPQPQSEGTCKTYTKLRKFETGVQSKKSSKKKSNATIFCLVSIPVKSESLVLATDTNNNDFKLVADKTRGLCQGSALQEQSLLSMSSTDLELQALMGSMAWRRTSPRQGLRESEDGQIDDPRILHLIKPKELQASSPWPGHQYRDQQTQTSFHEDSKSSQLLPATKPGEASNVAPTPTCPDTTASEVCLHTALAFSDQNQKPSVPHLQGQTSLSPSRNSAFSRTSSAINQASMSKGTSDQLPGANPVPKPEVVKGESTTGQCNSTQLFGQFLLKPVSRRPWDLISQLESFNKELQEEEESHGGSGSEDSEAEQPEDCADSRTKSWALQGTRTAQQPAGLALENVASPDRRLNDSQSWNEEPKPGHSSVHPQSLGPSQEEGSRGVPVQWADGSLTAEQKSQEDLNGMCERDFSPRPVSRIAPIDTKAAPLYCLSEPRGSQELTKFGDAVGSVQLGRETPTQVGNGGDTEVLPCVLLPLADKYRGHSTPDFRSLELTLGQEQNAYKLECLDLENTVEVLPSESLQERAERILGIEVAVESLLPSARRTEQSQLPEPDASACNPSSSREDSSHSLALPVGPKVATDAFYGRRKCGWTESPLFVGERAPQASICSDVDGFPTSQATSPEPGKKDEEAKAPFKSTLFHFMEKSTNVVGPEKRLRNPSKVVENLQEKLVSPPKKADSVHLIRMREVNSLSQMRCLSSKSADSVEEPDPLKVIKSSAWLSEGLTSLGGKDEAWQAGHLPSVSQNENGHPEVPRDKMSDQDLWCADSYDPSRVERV
# UniProt Q3U7U3: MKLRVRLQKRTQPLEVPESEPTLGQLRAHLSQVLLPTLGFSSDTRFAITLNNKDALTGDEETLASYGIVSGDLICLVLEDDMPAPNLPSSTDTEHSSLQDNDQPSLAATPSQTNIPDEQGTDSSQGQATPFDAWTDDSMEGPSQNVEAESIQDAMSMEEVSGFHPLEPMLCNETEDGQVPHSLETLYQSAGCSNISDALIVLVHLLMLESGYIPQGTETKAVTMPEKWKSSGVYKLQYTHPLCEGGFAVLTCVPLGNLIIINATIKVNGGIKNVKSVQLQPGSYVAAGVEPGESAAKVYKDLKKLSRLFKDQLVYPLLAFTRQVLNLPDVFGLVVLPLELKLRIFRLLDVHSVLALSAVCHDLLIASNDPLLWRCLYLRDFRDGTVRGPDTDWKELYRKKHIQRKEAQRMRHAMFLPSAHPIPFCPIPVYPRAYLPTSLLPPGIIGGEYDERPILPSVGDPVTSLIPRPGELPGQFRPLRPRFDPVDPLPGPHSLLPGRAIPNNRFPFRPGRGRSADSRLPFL
# UniProt Q3UZZ6: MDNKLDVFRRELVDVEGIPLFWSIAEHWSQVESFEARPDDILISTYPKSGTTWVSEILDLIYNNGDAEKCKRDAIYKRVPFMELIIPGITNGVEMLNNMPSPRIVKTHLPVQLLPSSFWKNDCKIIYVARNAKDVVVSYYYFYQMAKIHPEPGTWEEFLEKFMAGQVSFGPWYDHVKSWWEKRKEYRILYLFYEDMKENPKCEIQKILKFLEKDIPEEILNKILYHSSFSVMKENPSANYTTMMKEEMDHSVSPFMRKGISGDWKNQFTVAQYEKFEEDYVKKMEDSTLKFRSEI
# UniProt Q3UQN2: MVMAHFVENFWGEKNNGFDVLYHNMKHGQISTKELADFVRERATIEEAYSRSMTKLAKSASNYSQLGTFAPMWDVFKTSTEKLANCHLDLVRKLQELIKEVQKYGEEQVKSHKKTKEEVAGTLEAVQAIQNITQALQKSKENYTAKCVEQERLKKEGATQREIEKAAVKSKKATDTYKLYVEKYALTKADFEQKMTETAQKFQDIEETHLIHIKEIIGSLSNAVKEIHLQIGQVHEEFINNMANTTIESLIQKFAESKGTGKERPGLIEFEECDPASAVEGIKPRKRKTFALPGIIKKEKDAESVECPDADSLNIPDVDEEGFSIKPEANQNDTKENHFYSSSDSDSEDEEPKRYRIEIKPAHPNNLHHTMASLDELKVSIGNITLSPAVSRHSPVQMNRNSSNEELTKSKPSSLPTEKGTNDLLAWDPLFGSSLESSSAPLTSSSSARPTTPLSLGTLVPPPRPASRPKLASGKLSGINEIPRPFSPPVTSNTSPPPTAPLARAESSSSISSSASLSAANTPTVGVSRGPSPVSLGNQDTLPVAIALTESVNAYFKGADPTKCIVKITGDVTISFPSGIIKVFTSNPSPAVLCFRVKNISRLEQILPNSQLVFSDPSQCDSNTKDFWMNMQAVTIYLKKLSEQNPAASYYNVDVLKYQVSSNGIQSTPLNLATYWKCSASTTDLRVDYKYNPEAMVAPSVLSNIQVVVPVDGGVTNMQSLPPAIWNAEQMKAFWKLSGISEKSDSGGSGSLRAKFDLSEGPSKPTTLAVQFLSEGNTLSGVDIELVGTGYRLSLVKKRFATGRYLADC
# UniProt Q505K2: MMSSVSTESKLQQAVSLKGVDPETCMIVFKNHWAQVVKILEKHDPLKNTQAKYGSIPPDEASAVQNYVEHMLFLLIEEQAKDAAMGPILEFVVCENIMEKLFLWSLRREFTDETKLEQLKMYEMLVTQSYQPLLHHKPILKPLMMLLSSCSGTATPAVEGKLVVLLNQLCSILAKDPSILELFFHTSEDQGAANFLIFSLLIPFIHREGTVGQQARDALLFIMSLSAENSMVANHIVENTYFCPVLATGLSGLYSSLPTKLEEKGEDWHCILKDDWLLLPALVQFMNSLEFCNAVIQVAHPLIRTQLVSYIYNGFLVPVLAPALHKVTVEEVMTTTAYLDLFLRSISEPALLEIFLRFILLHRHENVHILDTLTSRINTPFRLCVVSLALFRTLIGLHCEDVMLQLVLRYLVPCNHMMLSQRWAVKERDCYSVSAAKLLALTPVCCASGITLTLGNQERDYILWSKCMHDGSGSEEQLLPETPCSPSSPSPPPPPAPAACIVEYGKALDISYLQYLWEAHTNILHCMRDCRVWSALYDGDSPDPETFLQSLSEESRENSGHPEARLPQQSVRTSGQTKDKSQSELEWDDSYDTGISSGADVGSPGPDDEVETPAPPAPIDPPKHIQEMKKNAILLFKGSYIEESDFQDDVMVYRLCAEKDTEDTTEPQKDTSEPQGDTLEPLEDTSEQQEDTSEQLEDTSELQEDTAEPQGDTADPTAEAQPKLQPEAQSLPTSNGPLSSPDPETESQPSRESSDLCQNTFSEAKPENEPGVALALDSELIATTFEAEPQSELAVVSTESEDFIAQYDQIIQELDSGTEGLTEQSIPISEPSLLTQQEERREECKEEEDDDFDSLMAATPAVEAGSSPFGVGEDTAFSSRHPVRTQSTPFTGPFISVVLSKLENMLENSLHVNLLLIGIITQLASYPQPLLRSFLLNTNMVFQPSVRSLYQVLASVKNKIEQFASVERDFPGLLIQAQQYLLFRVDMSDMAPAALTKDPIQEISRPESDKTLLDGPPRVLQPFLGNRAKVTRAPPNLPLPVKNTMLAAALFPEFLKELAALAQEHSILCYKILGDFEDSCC
# This is one part of the list. Small differences around the control level are noise.
# Compound: CN[C@@H]1C[C@H]2O[C@@](C)([C@@H]1OC)n1c3ccccc3c3c4c(c5c6ccccc6n2c5c31)C(=O)NC4 [staurosporine]
# Assay: log2 fold change of tryptic peptide abundance, ligand vs vehicle (limited proteolysis) (log2 ratio); higher = more trypsin-susceptible (destabilized)
# Conditions: ligand concentration: 20 uM; sample: mouse liver crude lysate; replicate design: treated separately
row,Target,log2 fold change
1,"UniProt Q3U3E2 (peptide sequence: GQAAPCMR, peptide start residue: 235)",0.576
2,"UniProt Q5DTX6 (peptide sequence: ESEDGQIDDPR, peptide start residue: 654)",0.346
3,"UniProt Q3U7U3 (peptide sequence: FDPVDPLPGPHSLLPGR, peptide start residue: 483)",0.0775
4,"UniProt Q3UZZ6 (peptide sequence: FMAGQVSFGPWYDHVK, peptide start residue: 162)",0.185
5,"UniProt Q3UQN2 (peptide sequence: SKPSSLPTEK, peptide start residue: 410)",-0.295
6,"UniProt Q505K2 (peptide sequence: ILEKHDPLKNTQAK, peptide start residue: 39)",0.4
